Assay results reported in US10584350B2, “Structurally modified COI1” (Board of Trustees of Michigan State University, priority 2016, dated 2020).

Test system: male fertility
Test: Fertility of transgenic plants (complementation of male sterile COI1-30)
Type: in vivo, Arabidopsis

B1: COI1A384V: modified Arabidopsis thaliana COI1 protein with valine at position 384 (SEQ ID NO:2); also names transgenic plants expressing it (protein, listed as Arabidopsis thaliana)
chain: MEDPDIKRCKLSCVATVDDVIEQVMTYITDPKDRDSASLVCRRWFKIDSETREHVTMALCYTATPDRLSRRFPNLRSLKLKGKPRAAMFNLIPENWGGYVTPWVTEISNNLRQLKSVHFRRMIVSDLDLDRLAKARADDLETLKLDKCSGFTTDGLLSIVTHCRKIKTLLMEESSFSEKDGKWLHELAQHNTSLEVLNFYMTEFAKISPKDLETIARNCRSLVSVKVGDFEILELVGFFKAAANLEEFCGGSLNEDIGMPEKYMNLVFPRKLCRLGLSYMGPNEMPILFPFAAQIRKLDLLYALLETEDHCTLIQKCPNLEVLETRNVIGDRGLEVLAQYCKQLKRLRIERGADEQGMEDEEGLVSQRGLIALAQGCQELEYMVVYVSDITNESLESIGTYLKNLCDFRLVLLDREERITDLPLDNGVRSLLIGCKKLRRFAFYLRQGGLTDLGLSYIGQYSPNVRWMLLGYVGESDEGLMEFSRGCPNLQKLEMRGCCFSERAIAAAVTKLPSLRYLWVQGYRASMTGQDLMQMARPYWNIELIPSRRVPEVNQQGEIREMEHPAHILAYYSLAGQRTDCPTTVRVLKEPI
Q: How did the fertile lines (10 of 12 lines analyzed, COI1-30-null background) turn out when B1 was run?
A: 83%

Q: What about the “fertility penalty (number of developed siliques, seeds per silique)” value (compared with wild-type plants) of the same molecule?
A: No fertility penalty
